Data published in PubChem BioAssay AID2685 (National Center for Advancing Translational Sciences (NCATS), 2010).
In all, about 320,000 compounds went through this assay and about 2,100 (0.66%) were called active. Inconclusive means that the source gave no clear call. Such entries were picked first, then a sample of the others. Calls follow the shape of the dose curve; as a rule, active = well fitted inhibition curve with a large enough effect in the signal ratio, with a control signal flat (not every such curve was filed as active); inconclusive = small, poorly fitted or top-dose-only effect, or effect the other way, or a change in a side signal; inactive = flat fitted curve, though single readings scatter; the % refers to the signal ratio. Potencies of inconclusive entries are doubtful fits and often do not repeat.

assay: qHTS Assay for Lipid Storage Modulators in Drosophila S3 Cells; conditions: BODIPY lipid droplet fluorescence, 18-24 h, cells fed with added oleic acid; lipid storage change, negative = inhibition: at 46.1 µM (top of the series) unless noted
Method in brief: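 Drosophila S3 cells loaded with oleic acid (400 uM, as added) and compounds at several concentrations; lipid droplets imaged by 488-nm laser-scanning cytometry, 500–530 nm intensity and object ratio to cell channel. Percent activity normalized to 20 uM Triacsin C.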
% is scaled to controls: 0 for no effect and ±100 for the full control effect; potency is read from the fitted curve at half-maximal effect.

SMILES | Potency | lipid storage change, negative = inhibition | outcome
CCOc1c(OC(C)=O)ccc(/C=C/c2ccc3cccc(OC(C)=O)c3n2)c1[N+](=O)[O-] | inconclusive: 29.1 µM [cytotoxic, single point] | – | –
CNCCOCC(O)CSc1ccccc1 (centres undefined) | – | inconclusive: -4.26% | –
COc1ccc(S(=O)(=O)N2CCC(C(=O)NN3CCCCC3)CC2)cc1OC | – | inconclusive: -32.4% | –
O=C(O)Cn1nnnc1SCC(=O)Nc1ccc(F)cc1F | inconclusive: 6.51 µM [cytotoxic, partial curve] | – | –
Cc1cc(C)nc(NC(=O)Cc2cccs2)n1 | – | inconclusive: 69.8% | –
Cc1ccc(C(=O)c2cncc(Br)c2)cc1 | inconclusive: 0.184 µM [activator, full curve, poor fit] | – | –
CCOC(=O)N1CCN(C(=O)c2ccc3c(c2)N(Cc2ccccc2)CCS3)CC1 | inconclusive: 3.66 µM [falling, single point] | – | –
CCNc1nc(NC(C)(C)C)nc(N2CCCCC2)n1 | inconclusive: 1.64 µM [cytotoxic, full curve, poor fit] | – | –
O=C(c1cc(COc2c(F)cccc2F)on1)N1C[C@H]2CC[C@H]1C2 | – | inconclusive: -30.9% | –
Cc1c(NC(=O)C(=O)N/N=C/c2cccs2)c(=O)n(-c2ccccc2)n1C | – | inconclusive: -39.9% | –
COC(=O)CC1=C(C)C(=O)CC2C(C)(C)CCCC12C (centres undefined) | – | inconclusive: -10.1% | –
COC(C[C@@H](O)C[C@@H](O)COCc1ccccc1)OC | – | inconclusive: 10.5% | –
COc1cccc(C(=O)NCCN2CCN(c3ccc(Cl)cc3)CC2)c1 | – | inconclusive: 24.7% | –
O=C(O/N=C1\C(=O)N(c2ccccc2)c2ccccc21)C1CC1 | – | inconclusive: -0.424% | –
CCOC(=O)NCc1ccccc1 | inconclusive: 10.3 µM [activator, partial curve, poor fit] | – | –
CCOc1ccc(S(=O)(=O)N2CCN(c3ccccc3OC)CC2)c2cccnc12 | – | inconclusive: 39.7% | –
O=C(CN1N=C(c2ccccc2)CCC1=O)NCCN1CCc2ccccc2C1 | – | inconclusive: -19.2% | –
O=C(NCc1ccccc1)c1cccc(NC(=O)c2ccco2)c1 | – | inconclusive: 49.9% | –
Cn1nc(-c2ccccc2)c(CO)c1Sc1ccccc1 | – | inconclusive: -4.98% | –
Cc1nn(-c2ccccc2)c(Cl)c1/C=N/NC(=O)c1ccco1 | – | inconclusive: 28.8% | –
CCOc1ccc(NC(=O)CC2C(=O)N(c3ccc(OC)cc3)C(=O)N2CCc2cccs2)cc1 (centres undefined) | – | inconclusive: 20.3% | –
CCOc1ccc(S(=O)(=O)N(C)c2ccc(OCC(=O)Nc3ccccc3F)cc2)cc1 | – | inconclusive: 4.75% | –
COc1cccc(CC(=O)N2CCC(n3nccc3NC(=O)C3CC3)CC2)c1 | – | inconclusive: -43.2% | –
CCOC(=O)c1cnc(SCC(=O)Nc2cc(OC)ccc2OC)nc1N | – | inconclusive: 133% | –
COc1ccc(OCC(=O)Nc2ccc3c(c2)CCC3)cc1 | – | inconclusive: -1.3% | –
COC(=O)CSc1nnc2c(C)cc3cc4c(cc3n12)OCCO4 | – | inconclusive: 11.2% | –
COc1ccc(/C=C2\Sc3ccc(C(=O)NCCN4CCCCCC4)cc3N(C)C2=O)cc1 | inconclusive: 6.51 µM [activator, single point] | – | –

SMILES | Potency | lipid storage change, negative = inhibition | outcome
Cc1[nH]n(-c2ccccc2)c(=O)c1N=Nc1ccc2c(c1)OCO2 | – | inactive: -19.5% | –
CCN(CC)S(=O)(=O)c1ccc2oc(SCC3CN=C(c4ccc(OC)cc4)S3)nc2c1 (centres undefined) | inconclusive: 0.0052 µM [activator, full curve, poor fit] | – | –
NC(=O)/C=C\C(=O)Nc1cccc(C(F)(F)F)c1 | inconclusive: 29.1 µM [activator, single point] | – | –
CCN(CC)C(=O)c1[nH]cnc1C(=O)N[C@@H](CC(C)C)C(=O)OCc1ccccc1 | – | inactive: -21.5% | –
COc1ccc(C2CC(=O)C=C(NCC3CCCO3)C2)cc1 (centres undefined) | – | inconclusive: 12.2% | –
COc1ccc(NC(=O)C2(S(=O)(=O)c3ccc(C)cc3)CC2)cc1OC | – | inconclusive: 28.1% | –
COc1ccccc1-c1nnc(NC(=O)c2ccccc2F)o1 | – | inconclusive: -15.1% | –
Cc1ccc(CC(=O)Nc2ccc(F)c([N+](=O)[O-])c2)cc1C | – | inconclusive: 20.2% | –
CCn1c(=O)n(CC(=O)NCc2ccccc2OC)c(=O)c2ccccc21 | inconclusive: 0.164 µM [falling, full curve, poor fit] | – | –
COc1cc(NC(=O)c2ccc(Cl)cc2)c(OC)cc1NC(=O)CN1CCCCC1 | – | inconclusive: -10.4% | –
CCOC(=O)CSc1ccc2nnc(-c3cccnc3)n2n1 | – | inconclusive: 3.88% | –
COc1cc(NC(=O)c2nccnc2N)cc(C(=O)Nc2cccc(C(F)(F)F)c2)c1 | – | inconclusive: -14.3% | –
CN(C)c1ccc(C(CNS(=O)(=O)c2ccc3ccccc3c2)c2c[nH]c3ccccc23)cc1 (centres undefined) | – | inconclusive: -29.5% | –
O=C(Nc1nc2ccccc2n1CCN1CCCCC1)c1ccco1 | – | inconclusive: -0.59% | –
N#CCSc1ncnc2ccccc12 | – | inconclusive: -8.39% | –
Cc1ccc(S(=O)(=O)CC(=O)Nc2nnc(C)s2)cc1 | inconclusive: 0.146 µM [activator, full curve, poor fit] | – | –
COc1cc(Cl)c(CN2CCCC(CO)(Cc3ccccc3)C2)cc1OC (centres undefined) | – | inconclusive: -35% | –
CCCCC(=O)N/N=C/c1ccc(N2CCOCC2)c([N+](=O)[O-])c1 | – | inconclusive: -0.97% | –
Cc1ccc(C)c(N2CCN(C(=O)C3CCN(S(=O)(=O)c4cccc5nsnc45)CC3)CC2)c1 | – | inconclusive: -15% | –
O=C(N/N=C/c1cc([N+](=O)[O-])ccc1Cl)c1cc(-c2ccccc2)nc2ccccc12 | – | inconclusive: 10% | –
COc1ccc(NC(=O)COC(=O)c2ccc(-n3nc(C)cc3C)cc2)cc1OC | – | inconclusive: 29.4% | –
O=C(NCc1ccco1)C1Cc2cc(Cl)ccc2O1 (centres undefined) | – | inconclusive: 33.4% | –
CN(C(=O)CN1CCCCCC1)c1c(N)n(Cc2ccccc2)c(=O)[nH]c1=O | – | inconclusive: 22.6% | –
O=[N+]([O-])c1ccccc1S(=O)(=O)Nc1ccc(S(=O)(=O)Nc2nccs2)cc1 | – | inconclusive: -167% | –
O=C1CCCCCN1CP(=O)(O)CN1CCCCCC1=O | – | inconclusive: -32.5% | –
O=C1NCC2=C1C(c1ccccc1)Nc1ccccc1N2 (centres undefined) | inconclusive: 9.2 µM [falling, partial curve, poor fit] | – | –
CCOC(=O)C1=C(c2ccccc2)O/C(=C(/C#N)C(F)(F)F)S1 | inconclusive: 3.26 µM [activator, partial curve] | – | –

SMILES | Potency | lipid storage change, negative = inhibition | outcome
CN(C(=O)COC(=O)/C=C/c1cccs1)c1c(N)n(Cc2ccccc2)c(=O)[nH]c1=O | – | inconclusive | –
NC(=O)c1cc(S(=O)(=O)NCCc2ccc(S(N)(=O)=O)cc2)cs1 | inconclusive: 2.06 µM [activator, full curve] | – | –
Cc1ccc(C(=O)CSc2nnc(CNc3nc(-c4ccccc4)cs3)n2C)cc1 | inconclusive: 3.66 µM [activator, partial curve, poor fit] | – | –
Cc1c(C(=O)N2CCN(S(=O)(=O)c3ccccc3)CC2)oc2ccccc12 | – | inconclusive | –
CC(C)(C)c1ccc(OCCN2CCCC2)cc1 | inconclusive: 0.92 µM [falling, full curve, poor fit] | – | –
NC(=O)C1CCN(C(=O)C2CCC(=O)N(C3CCCCCC3)C2)CC1 (centres undefined) | inconclusive: 29.1 µM [activator, single point] | – | –
COc1ccc(CCN(C)C2CCCN(C(=O)c3ccnn3C)C2)cc1OC (centres undefined) | – | inconclusive: 30.2% | –
Cn1nnnc1SCCNCc1ccccc1F | inconclusive: 29.1 µM [falling, single point] | – | –
COc1ccc(/C=C2/N=C(SC3CCOC3=O)N(c3cccc(OC)c3)C2=O)cc1 (centres undefined) | – | inactive: -2.83% | –
Cc1nn2c(-c3cccnc3)ccnc2c1-c1ccccc1 | – | inconclusive: -11.8% | –
CN=c1scc(-c2ccc(OC)cc2)n1/N=C(\C)c1cccnc1 | – | inconclusive: -18.3% | –
O=c1ccc2cc(S(=O)(=O)NCc3ccccc3)ccc2[nH]1 | – | inconclusive: -13.1% | –
C=C1SC(Nc2c(C)cccc2C)=NC12CCCCC2 | inconclusive: 18.4 µM [cytotoxic, single point] | – | –
CN(CC(=O)Nc1ncn[nH]1)S(=O)(=O)c1ccc(Cl)cc1 | – | inconclusive: 40.2% | –
Cc1ccc2c(c1)C(O)(C1COC(C)(C)CC1=O)C(=O)N2C (centres undefined) | inconclusive: 3.66 µM [falling, partial curve] | – | –
CCc1cccc(NC(=O)C2CCCN(S(=O)(=O)c3ccc4[nH]c(=O)ccc4c3)C2)c1 (centres undefined) | – | – | inactive [at 46.1 µM]
CCC(=O)Nc1nc(C)c(-c2csc(Nc3ccccn3)n2)s1 | inconclusive: 29.1 µM [falling, single point] | – | –
COc1ccc(-n2c(=S)[nH]c3cc(C(=O)Nc4ccc(OC)c(OC)c4)ccc3c2=O)cc1 | – | inactive: -2.43% | –
Cc1ccc(CN2CCN(CC(=O)NCc3ccccc3)CC2)cc1 | – | inconclusive: 66.1% | –
O=C(CCN1CCC(c2ccc(Cl)s2)=N1)c1ccc(Cl)s1 | – | inconclusive: 6.68% | –
COCCNc1cc(NCCOC)c([N+](=O)[O-])cc1[N+](=O)[O-] | – | inconclusive: -82.5% | –
CCCCN(C)C(=O)c1nc2ccccn2c1CN1CCC[C@H]1CO | – | inconclusive: 20.2% | –
COc1ccc(Cc2nc3ccc(C(=O)NCC(C)(C)OC)cc3o2)cc1 | – | inconclusive: 253% | –
Cc1ccc(NC(=O)Nc2ccccc2F)cc1S(=O)(=O)N1CCOCC1 | – | inconclusive: -25.7% | –
O=C(COc1cc(F)ccc1[N+](=O)[O-])N1N=C(c2cccs2)CC1c1ccco1 (centres undefined) | inconclusive: 6.51 µM [activator, partial curve, poor fit] | – | –
